Assay results published in PubChem BioAssay AID1347423 (Functional Genomics Laboratory (NCATS/FGL), 2020).
Out of some 52,000 sequences screened, about 210 (0.4%) were called active.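 Rule for the calls: active = gene whose silencing raises cell survival under the drug, median off-target-corrected z-score across its silencing RNAs 2 or more; inactive = the rest.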 The list shows a part of the results.

test: Resistance to Poly (ADP-Ribose) Polymerase inhibitor: Gene Identification via Genome-wide siRNA Screen; conditions: mouse BRCA2 R2336H ES cells, olaparib, CellTiter-Glo viability; stronger effect = higher value
How it was run: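 Mouse BRCA2 R2336H ES cells were reverse-transfected with siRNA (20 nM final), treated at 48 h with 500 nM olaparib, and read by CellTiter-Glo after 72 h. Scores: MAD-based z per siRNA, median per gene, seed off-target correction.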

Sequence	z-score
GGAAGUGAGGAAGUGACAUTT against 1810009N02Rik	inactive: -1.27
GGGCUUCUCCUAAUUCAGATT against Armcx3	inactive: 0.232
GCAAUGCACCAUUAGCAGCTT against Stard8	inactive: -2.01
GGAGUUCCUAUUUAAUCCCTT against Hoxb8	inactive: 1.04
GGAUUGUGGCCUUCUUUGATT against Bcl2	inactive: -0.758
CCUCAUUGUGUCGUCUUACTT against C230075L19Rik	inactive: -1.31
GGUCGGAUGGAUUCAAAUUTT against 1110059F07Rik	inactive: -2.22
UCUUUGGCAACACUACCAUTT against Olfr1386	inactive: -2.29
GGAUAAGAGGGUGAAGUCATT against Cdyl2	inactive: 1.62
GCCAUGACUAUUCCAGCUUTT against Lgals4	inactive: -0.568
GGCUGAAAUAAAACAAGAATT against 2010315L10Rik	inactive: -0.67
UUUCCCGACCUCUCCACUATT against Olfr463	inactive: -1.08
GGCCAAGAUCCAGAAGAAGTT against Ush1g	inactive: -2.71
GUACAAGUGUGGACCCUUATT against Chchd2	inactive: -2.01
GAGUCUAGACAGUAUGUUCTT against 2900010J23Rik	inactive: -1.55
GCAGAUGACUAUCGGAAGUTT against Usp53	inactive: -0.145
GGGUGAUACUGACAAUCAUTT against Fhod1	inactive: -0.652
GGAAUACGGAAUCAUGGUUTT against BC037708	inactive: 0.199
GCUGCCGUUUAAAUAUAUGTT against D10Wsu102e	inactive: -1.16
GCAGUGAACAGCUAUUAACTT against Styx	inactive: -0.0524
GGUGCUGAAGAAGCACCAUTT against Stat5a	inactive: -0.354
GGACCUAAUAUCAUACUCATT against 4632407F12Rik	inactive: -0.94
GGAUAACUACAGGAAUAAGTT against Spam1	inactive: 0.143
CCCUCCGAAAAUUUUUCUGTT against Defb14	inactive: 0.36
GGAAAGCAGACAUCGACCUTT against Rps18	inactive: -2.2
GGCCAAAGUGCAGAUGAAATT against 8230402K04Rik	inactive: 0.762

Sequence	z-score
GCCAGUUGUGACAAAACUATT against Abca1	inactive: -1.41
UACAGUAGAGUCAUUUUCUTT against V1rd17	inactive: 0.207
GGAUAAGACAAGAAGAGAUTT against A230079K17Rik	inactive: 0.433
GGAAUGAGAUUAUUUCUUGTT against Astn1	inactive: 0.303
CCCAUUGCCAGUACAACUUTT against Cxcr3	inactive: -1.42
CCCAUGGAAAUCCUCAGUATT against Ppgb	inactive: -1.56
CCUUGUUUUUCACAAAUCATT against Usp7	inactive: -1.46
GGAAUGAGGGUAAUGAAUATT against M6prbp1	inactive: 1.42
GGCAGCUAUAGGUUAGAUUTT against LOC434228	inactive: 1.57
GGCUAGGACCCAAGUUCUATT against Thra	inactive: -0.0321
CCUUACCAGGAAACAUAUUTT against 1810055E12Rik	inactive: -1.62
CCAGGAACAGCUAUCGGAUTT against Homer2	inactive: -2.24
GGCUCUUUAUGGACAUGGCTT against Tac1	inactive: 0.45
GCAUGAUAGGCCUGUUAUUTT against 4.93E+23	inactive: -0.318
GCAAUAUUUCAGCACACUGTT against 5730420B22Rik	inactive: 0.729
GGCAGAUAUUUAGAUGAUGTT against Pdyn	inactive: -0.995
GGCUACCAUAGGUUUUAAUTT against LOC574418	inactive: 0.012
GCUGCUUUAUCGAGUGGUUTT against Capn8	inactive: -1.37
GGCUUCCUACCUAAGGCUUTT against 6720463M24Rik	inactive: -0.264
CGGAUUCAGUAUUAGCAAUTT against Ogt	inactive: -1.49
GGAAAUCCUGCUGUAAGGATT against V1re10	inactive: -1.89
GGUGGAAGGCAACAUAUAUTT against 1110059P08Rik	inactive: -1.23
GGAAAGAUCAUGGACAAGUTT against Dtna	inactive: -0.359
CCUGCAUUAGCAUGUUAGGTT against Gral	inactive: 0.475
CCGUUACAGUUAAAUUUACTT against Per3	inactive: 1.46
GCAGUCACUAAAUUGGAAATT against Eif3s1	inactive: 0.901

Sequence	z-score
GGUUUCAUGUUCUGAAACUTT against 2210415K24Rik	inactive: 0.941
GGCCAAGAAAAACUACUAUTT against Kcnk5	inactive: -0.586
GGAAUUCUAGACAAUCAAGTT against Ctso	inactive: -0.477
GGAGAACAUAAUGAAAUCUTT against D0HXS9928E	inactive: 0.527
CCCAAUGACAAUAAAGACCTT against Mmp25	inactive: -0.156
UUCUGUGAUCAUGUCUUCUTT against Tuba2	inactive: -2.28
CCUUGUGUAUGAAAUACUUTT against Taf1b	inactive: -1.97
GGCCUAUCCUCCAACAACATT against 2610311I19Rik	inactive: 0.159
GGUGGUUCGAUAUGAGGCATT against Prom2	inactive: -1.17
GGAAUCUUUAUGUCGGCACTT against Tgfbrap1	inactive: 0.447
GGAAGUAGAGACAGGAGGATT against AF119384	inactive: 1.25
CCUAUUACCAGUCUUAUGATT against Zfp458	inactive: 0.128
GGUUGAAUCUGUAAACAUGTT against C130058G22Rik	inactive: -0.288
GGCCAGAGACUGCCUGAUUTT against MGC29978	inactive: -2.63
GGAGAUCGUCUCUCUCAUCTT against 2500001H09Rik	inactive: -0.345
GCUACCAUCGGUUUUCCGATT against Cdc6	inactive: 0.952
GGAAAUUGAUCAUUGACCATT against 4933417K04Rik	inactive: 0.559
CCACAGAUUACAUUUAUCCTT against Sephs1	inactive: 0.234
GCGCAACUGAAAUAAAUGATT against Hoxc9	inactive: -1.04
CCAAUCCAACAGCAUAUUUTT against Vkorc1	inactive: -0.646
GGUUAGAAUUUGCUAGAAATT against D330038I09Rik	inactive: -0.405
GGACCGAGCCAGAUUCUUCTT against 4930500E24Rik	inactive: 0.586
GCAAUAAUAGAAUGAGAAGTT against Ott	inactive: 0.755
GGCUCUUGGGAGAUUUAAATT against Sp5	inactive: 0.923
GGCAGAAUGGGCUUAUGUCTT against 5730502D15Rik	inactive: -2.66
GGACCGGUUUAUUUGGCGGTT against Mmp2	inactive: -0.987

Sequence	z-score
CCGACUGCUCGUAAAUUCATT against 2410011G03Rik	inactive: 0.899
GGCUUUCUAUACGUGUGCUTT against Olfr1161	inactive: 0.0115
GAGGAUUCUGUAGGUCUUCTT against Defb19	inactive: -0.399
GGGCAAAAAAGGUCUAUUCTT against Rfpl4	inactive: -0.82
GGAAAUUACUUUGAUACUCTT against Rfx3	inactive: -0.206
GGCUUAUUUUUCUUCAGUUTT against Ext1	inactive: -0.0515
GGAGAAAUCUCAAAGAUCUTT against 4930563E19Rik	inactive: 0.925
CCCUAUGGUGAAAUCUGUCTT against 3110038B19Rik	inactive: -0.585
GGCCUCAAGGUGAUGGAAATT against 5430419D17Rik	inactive: 0.581
GGGAGUGGGAUUUUGCCUUTT against Sfn	inactive: -0.125
GGAUAGCAAUUGUCUUUCATT against 6.72E+21	inactive: -0.794
GUUACUUUGAUGUUGUCUATT against Pdgfrl	inactive: 0.387
GCAGAUUUAUUCCUCACGATT against D8Wsu49e	inactive: 1.63
GGACUCUUUUUUUACCUUGTT against 2310036O22Rik	inactive: -1.83
GGGCUACAUAACCAUCCGUTT against Lu	inactive: 0.0385
CCAAAUAUCCGGCCAUGACTT against Lgals6	inactive: -0.132
GCUGACAGACUUAUUACUUTT against Cul4b	inactive: -1.91
GGAGUCUUAUGUCUUGGAUTT against Aldh1b1	inactive: 0.275
GGGAAAAAACCCUGUUCUUTT against Zfp11	inactive: -0.0585
CCUGAUAAGCAAAUACGGCTT against 2210417D09Rik	inactive: -0.0638
GGCUCAAGGAACAUGAGGCTT against BC048502	inactive: -0.578
GGGACUCCCAAACAACAAATT against Lair1	inactive: 0.167
CCUGUAGCAUUACGUUAGCTT against 9030611K07Rik	inactive: 0.841
GGAGAUCAUCAACAUCGCCTT against Nptx2	inactive: 1.71
GGUGGACAAGGCAAUACAGTT against Mmp20	inactive: -0.672

25 entries from above, in markdown:

| Sequence | z-score |
| --- | --- |
| GGCAGAAUGGGCUUAUGUCTT against 5730502D15Rik | inactive: -2.66 |
| GGACCGGUUUAUUUGGCGGTT against Mmp2 | inactive: -0.987 |
| CCGACUGCUCGUAAAUUCATT against 2410011G03Rik | inactive: 0.899 |
| GGCUUUCUAUACGUGUGCUTT against Olfr1161 | inactive: 0.0115 |
| GAGGAUUCUGUAGGUCUUCTT against Defb19 | inactive: -0.399 |
| GGGCAAAAAAGGUCUAUUCTT against Rfpl4 | inactive: -0.82 |
| GGAAAUUACUUUGAUACUCTT against Rfx3 | inactive: -0.206 |
| GGCUUAUUUUUCUUCAGUUTT against Ext1 | inactive: -0.0515 |
| GGAGAAAUCUCAAAGAUCUTT against 4930563E19Rik | inactive: 0.925 |
| CCCUAUGGUGAAAUCUGUCTT against 3110038B19Rik | inactive: -0.585 |
| GGCCUCAAGGUGAUGGAAATT against 5430419D17Rik | inactive: 0.581 |
| GGGAGUGGGAUUUUGCCUUTT against Sfn | inactive: -0.125 |
| GGAUAGCAAUUGUCUUUCATT against 6.72E+21 | inactive: -0.794 |
| GUUACUUUGAUGUUGUCUATT against Pdgfrl | inactive: 0.387 |
| GCAGAUUUAUUCCUCACGATT against D8Wsu49e | inactive: 1.63 |
| GGACUCUUUUUUUACCUUGTT against 2310036O22Rik | inactive: -1.83 |
| GGGCUACAUAACCAUCCGUTT against Lu | inactive: 0.0385 |
| CCAAAUAUCCGGCCAUGACTT against Lgals6 | inactive: -0.132 |
| GCUGACAGACUUAUUACUUTT against Cul4b | inactive: -1.91 |
| GGAGUCUUAUGUCUUGGAUTT against Aldh1b1 | inactive: 0.275 |
| GGGAAAAAACCCUGUUCUUTT against Zfp11 | inactive: -0.0585 |
| CCUGAUAAGCAAAUACGGCTT against 2210417D09Rik | inactive: -0.0638 |
| GGCUCAAGGAACAUGAGGCTT against BC048502 | inactive: -0.578 |
| GGGACUCCCAAACAACAAATT against Lair1 | inactive: 0.167 |
| CCUGUAGCAUUACGUUAGCTT against 9030611K07Rik | inactive: 0.841 |
